The record followed here is paper PMC7954791, “MAGIs regulate aPKC to enable balanced distribution of intercellular tension for epithelial sheet homeostasis” (Communications Biology, 2021).

By UniProt entry, the sequences of proteins in these tests, tags left out.
UniProt P39447: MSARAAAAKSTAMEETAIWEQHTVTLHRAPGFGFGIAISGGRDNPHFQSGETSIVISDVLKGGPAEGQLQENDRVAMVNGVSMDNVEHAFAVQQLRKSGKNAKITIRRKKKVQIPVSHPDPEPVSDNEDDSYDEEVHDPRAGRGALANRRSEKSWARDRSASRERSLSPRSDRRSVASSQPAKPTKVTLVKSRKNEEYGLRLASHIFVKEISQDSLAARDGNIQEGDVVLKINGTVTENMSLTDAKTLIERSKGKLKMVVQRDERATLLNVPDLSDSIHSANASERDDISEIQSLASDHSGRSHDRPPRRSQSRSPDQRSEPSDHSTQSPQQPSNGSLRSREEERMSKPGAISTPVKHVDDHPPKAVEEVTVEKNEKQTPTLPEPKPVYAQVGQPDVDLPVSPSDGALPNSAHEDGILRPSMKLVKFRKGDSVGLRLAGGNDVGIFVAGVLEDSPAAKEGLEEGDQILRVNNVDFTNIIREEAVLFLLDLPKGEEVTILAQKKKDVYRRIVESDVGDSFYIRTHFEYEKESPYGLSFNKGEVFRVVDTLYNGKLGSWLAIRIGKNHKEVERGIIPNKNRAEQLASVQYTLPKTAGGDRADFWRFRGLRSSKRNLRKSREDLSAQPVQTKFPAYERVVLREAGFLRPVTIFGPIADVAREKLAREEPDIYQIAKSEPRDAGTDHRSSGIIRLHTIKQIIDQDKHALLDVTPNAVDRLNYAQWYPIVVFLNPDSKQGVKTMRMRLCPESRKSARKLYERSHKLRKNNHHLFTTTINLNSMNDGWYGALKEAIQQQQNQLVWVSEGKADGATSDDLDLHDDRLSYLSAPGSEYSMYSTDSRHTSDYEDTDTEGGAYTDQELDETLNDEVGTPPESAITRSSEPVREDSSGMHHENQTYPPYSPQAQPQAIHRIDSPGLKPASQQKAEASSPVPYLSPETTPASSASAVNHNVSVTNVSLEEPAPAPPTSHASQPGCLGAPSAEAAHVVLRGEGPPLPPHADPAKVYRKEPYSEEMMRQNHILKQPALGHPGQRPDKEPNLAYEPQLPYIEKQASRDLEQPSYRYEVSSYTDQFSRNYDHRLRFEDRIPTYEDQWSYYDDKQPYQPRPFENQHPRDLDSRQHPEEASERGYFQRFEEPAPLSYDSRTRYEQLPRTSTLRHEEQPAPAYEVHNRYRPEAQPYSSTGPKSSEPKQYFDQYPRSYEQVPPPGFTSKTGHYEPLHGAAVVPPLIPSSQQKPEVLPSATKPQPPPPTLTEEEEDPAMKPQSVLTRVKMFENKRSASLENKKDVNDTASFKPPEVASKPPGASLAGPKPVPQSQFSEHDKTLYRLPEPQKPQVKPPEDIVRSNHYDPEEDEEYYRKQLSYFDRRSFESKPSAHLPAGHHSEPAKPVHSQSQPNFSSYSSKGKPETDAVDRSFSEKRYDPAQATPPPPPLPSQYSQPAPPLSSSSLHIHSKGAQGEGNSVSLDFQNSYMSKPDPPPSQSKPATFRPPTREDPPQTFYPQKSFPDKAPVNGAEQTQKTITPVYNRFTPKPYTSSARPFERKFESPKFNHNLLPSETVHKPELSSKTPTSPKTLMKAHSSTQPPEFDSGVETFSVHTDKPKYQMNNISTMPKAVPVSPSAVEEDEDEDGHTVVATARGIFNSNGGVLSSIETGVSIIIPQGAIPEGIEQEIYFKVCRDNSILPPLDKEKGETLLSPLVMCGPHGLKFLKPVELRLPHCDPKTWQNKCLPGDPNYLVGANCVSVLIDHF
UniProt Q9QZQ1: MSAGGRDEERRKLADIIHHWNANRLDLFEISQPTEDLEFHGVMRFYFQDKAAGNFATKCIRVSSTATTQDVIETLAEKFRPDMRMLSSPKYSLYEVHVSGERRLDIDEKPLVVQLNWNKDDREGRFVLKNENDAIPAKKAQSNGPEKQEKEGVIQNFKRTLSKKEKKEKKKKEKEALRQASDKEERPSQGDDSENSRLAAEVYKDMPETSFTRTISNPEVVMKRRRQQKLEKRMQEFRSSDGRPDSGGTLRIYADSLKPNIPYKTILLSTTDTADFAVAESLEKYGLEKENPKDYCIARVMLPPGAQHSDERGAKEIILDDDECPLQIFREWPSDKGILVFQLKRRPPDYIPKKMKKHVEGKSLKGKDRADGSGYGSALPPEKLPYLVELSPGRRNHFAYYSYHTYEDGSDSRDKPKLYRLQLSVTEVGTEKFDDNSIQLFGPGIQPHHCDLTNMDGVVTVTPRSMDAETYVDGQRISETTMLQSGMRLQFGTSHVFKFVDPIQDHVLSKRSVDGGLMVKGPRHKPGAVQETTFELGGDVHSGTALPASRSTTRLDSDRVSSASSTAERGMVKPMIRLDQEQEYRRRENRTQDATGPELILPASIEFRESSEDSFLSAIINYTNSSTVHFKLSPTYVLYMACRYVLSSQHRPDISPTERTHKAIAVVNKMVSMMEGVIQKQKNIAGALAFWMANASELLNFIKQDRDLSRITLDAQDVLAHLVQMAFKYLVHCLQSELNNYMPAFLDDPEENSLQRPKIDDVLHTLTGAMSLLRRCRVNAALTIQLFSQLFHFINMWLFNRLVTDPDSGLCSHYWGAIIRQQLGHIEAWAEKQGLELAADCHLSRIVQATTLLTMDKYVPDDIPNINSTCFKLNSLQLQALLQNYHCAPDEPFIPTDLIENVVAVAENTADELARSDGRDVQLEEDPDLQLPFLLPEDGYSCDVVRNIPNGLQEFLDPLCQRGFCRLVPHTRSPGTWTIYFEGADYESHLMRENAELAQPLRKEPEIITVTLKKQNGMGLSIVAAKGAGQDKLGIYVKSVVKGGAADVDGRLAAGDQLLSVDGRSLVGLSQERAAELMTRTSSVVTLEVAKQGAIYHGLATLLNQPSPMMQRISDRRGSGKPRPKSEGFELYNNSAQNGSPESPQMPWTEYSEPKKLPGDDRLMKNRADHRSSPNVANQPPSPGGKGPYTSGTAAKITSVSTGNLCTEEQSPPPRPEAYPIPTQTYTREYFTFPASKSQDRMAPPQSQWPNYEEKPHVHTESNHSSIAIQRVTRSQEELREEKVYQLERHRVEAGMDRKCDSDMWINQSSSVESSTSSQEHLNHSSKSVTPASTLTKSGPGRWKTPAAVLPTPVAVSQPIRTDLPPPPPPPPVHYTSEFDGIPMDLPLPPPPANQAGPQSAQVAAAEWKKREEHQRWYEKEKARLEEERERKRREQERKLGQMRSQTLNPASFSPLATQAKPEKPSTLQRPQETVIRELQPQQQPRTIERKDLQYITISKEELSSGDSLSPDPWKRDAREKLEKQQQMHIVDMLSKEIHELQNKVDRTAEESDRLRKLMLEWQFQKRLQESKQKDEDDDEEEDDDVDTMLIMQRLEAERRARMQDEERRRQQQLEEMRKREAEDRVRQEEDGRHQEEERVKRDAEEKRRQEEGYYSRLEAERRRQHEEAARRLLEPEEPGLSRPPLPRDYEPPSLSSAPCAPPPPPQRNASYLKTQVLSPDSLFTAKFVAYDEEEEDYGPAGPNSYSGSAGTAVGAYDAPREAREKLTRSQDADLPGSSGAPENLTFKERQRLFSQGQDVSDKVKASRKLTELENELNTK

No constants are given. Whether binding was seen depends on the method and setting. In cells and extracts the contact can be indirect. Some results given as binding are weak or reduced against the parent protein; the word gives no strength. For some of these results: Sequences can lack the tags named with a protein.

In experiment [1] the target is T1, ZO-2 (UniProt Q9Z0U1).
T1 sequence: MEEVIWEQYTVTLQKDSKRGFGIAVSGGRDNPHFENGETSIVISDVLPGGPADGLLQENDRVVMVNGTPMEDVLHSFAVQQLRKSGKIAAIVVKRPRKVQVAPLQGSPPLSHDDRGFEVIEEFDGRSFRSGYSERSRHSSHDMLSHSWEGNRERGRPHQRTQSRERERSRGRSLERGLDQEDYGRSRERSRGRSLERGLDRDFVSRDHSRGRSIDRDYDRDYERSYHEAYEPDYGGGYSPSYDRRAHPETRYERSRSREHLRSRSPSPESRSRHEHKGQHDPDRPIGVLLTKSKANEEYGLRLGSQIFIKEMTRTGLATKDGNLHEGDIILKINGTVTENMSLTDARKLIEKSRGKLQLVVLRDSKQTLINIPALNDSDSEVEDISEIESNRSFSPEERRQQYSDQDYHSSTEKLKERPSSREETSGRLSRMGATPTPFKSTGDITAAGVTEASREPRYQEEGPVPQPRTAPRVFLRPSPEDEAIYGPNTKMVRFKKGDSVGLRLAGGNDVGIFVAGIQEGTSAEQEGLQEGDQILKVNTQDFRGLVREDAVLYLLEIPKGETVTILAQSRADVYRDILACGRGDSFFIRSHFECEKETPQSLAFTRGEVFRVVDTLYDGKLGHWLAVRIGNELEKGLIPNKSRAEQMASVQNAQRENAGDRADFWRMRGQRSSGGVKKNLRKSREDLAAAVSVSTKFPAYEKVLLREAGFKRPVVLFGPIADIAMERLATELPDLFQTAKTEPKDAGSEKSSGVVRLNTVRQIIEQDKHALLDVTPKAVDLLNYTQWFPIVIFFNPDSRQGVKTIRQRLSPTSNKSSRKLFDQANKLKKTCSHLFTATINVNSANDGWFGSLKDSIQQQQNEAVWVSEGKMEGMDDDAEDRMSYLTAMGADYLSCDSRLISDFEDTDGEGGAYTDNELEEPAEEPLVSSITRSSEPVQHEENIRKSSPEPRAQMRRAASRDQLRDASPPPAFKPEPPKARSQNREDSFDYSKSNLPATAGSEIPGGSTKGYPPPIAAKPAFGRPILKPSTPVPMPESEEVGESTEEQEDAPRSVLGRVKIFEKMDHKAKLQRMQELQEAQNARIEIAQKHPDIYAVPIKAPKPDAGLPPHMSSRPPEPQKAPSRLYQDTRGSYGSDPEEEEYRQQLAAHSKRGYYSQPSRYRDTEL
Description: co-IP; FLAG immunoprecipitation in a heterologous expression system; anti-DYKDDDDK mAb beads 2 h; 20 mM Tris-HCl pH 7.5, 150 mM NaCl, 1% Triton X-100; blots with anti-FLAG, anti-HA, anti-GFP.

In experiment [2] the target is ZO-1 (UniProt P39447). Described as above.
In experiment [3] the target is afadin (UniProt Q9QZQ1). The experiment is described as above.
The target in experiment [4] is T2, ankyrin-repeat-, SH3-domain- and proline-rich-region-containing protein 2 (ASPP2), FLAG-tagged (UniProt Q8CG79).
T2 sequence: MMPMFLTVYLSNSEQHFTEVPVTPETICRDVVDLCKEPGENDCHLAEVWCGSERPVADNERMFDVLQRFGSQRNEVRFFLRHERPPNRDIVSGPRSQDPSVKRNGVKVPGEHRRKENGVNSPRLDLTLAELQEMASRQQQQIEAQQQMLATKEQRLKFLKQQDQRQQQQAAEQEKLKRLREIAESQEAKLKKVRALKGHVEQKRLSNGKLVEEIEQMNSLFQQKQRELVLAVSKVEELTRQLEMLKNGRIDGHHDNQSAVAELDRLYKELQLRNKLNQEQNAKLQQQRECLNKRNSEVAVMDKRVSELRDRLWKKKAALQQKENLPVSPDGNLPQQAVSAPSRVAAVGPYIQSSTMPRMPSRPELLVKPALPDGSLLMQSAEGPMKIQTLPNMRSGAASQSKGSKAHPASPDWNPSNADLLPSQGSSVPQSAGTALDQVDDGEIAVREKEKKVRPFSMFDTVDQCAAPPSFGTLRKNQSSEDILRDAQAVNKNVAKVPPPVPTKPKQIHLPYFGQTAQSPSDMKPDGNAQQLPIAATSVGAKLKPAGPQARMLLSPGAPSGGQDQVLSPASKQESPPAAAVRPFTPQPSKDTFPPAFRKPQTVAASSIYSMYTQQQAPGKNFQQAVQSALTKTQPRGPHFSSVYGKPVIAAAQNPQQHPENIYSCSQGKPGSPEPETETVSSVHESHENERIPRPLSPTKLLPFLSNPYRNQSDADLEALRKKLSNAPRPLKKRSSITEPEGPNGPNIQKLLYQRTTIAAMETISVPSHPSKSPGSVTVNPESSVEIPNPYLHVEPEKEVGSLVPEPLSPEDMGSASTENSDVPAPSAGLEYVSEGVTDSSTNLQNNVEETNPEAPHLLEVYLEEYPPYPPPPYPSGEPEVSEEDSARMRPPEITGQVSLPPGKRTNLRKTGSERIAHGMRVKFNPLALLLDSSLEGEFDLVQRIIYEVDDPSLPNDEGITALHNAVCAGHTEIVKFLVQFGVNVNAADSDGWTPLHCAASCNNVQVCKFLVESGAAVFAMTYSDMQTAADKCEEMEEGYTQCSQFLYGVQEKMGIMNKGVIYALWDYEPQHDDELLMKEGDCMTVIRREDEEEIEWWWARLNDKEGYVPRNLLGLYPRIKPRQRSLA
Briefly: co-IP; FLAG immunoprecipitation in a heterologous expression system; FLAG-ASPP2 and HA-MAGI-3 co-expressed with GFP alone; 20 mM Tris-HCl pH 7.5, 150 mM NaCl, 1% Triton X-100.

B1: MAGI-3 (natural protein, UniProt Q9EQJ9 1-1476, looked up)
chain: MSKTLKKKKHWLSKVQECAVSWAGPPGDLGAEIRGGAERGEFPYLGRLRDEAGGGGGTCCVVSGKAPSPGDVLLEVNGTPVSGLTNRDTLAVIRHFREPIRLKTVKPGKVINKDLRHYLSLQFQKGSIDHKLQQVIRDNLYLRTIPCTTRAPRDGEVPGVDYNFISVEQFKALEESGALLESGTYDGNFYGTPKPPAEPSPFQPDPVDQVLFDNEFDTESQRKRTTSVSKMERMDSSLPEEEEDEDKEAVNGSGSMETREMHSETSDCWMKTVPSYNQTNSSMDFRNYMMRDENLEPLPKNWEMAYTDTGMIYFIDHNTKTTTWLDPRLCKKAKAPEDCEDGELPYGWEKIEDPQYGTYYVDHLNQKTQFENPVEEAKRKKQLGQAEIHSAKTDVERAHFTRDPSQLKGVLVRASLKKSTMGFGFTIIGGDRPDEFLQVKNVLKDGPAAQDGKIAPGDVIVDINGNCVLGHTHADVVQMFQLVPVNQYVNLTLCRGYPLPDDSEDPVVDIVAATPVINGQSLTKGETCMNTQDFKLGAMVLDQNGKSGQILASDRLNGPSESSEQRASLASSGSSQPELVTIPLIKGPKGFGFAIADSPTGQKVKMILDSQWCQGLQKGDIIKEIYHQNVQNLTHLQVVEVLKQFPVGADVPLLILRGGPCSPTKTAKTKTDTKENSGSLETINEPIPQPMPFPPSIIRSGSPKLDPSEVYLKSKTLYEDKPPNTKDLDVFLRKQESGFGFRVLGGDGPDQSIYIGAIIPLGAAEKDGRLRAADELMCIDGIPVKGKSHKQVLDLMTTAARNGHVLLTVRRKIFYGEKQPEDESHQAFSQNGSPRLNRAELPTRSAPQEAYDVTLQRKENEGFGFVILTSKSKPPPGVIPHKIGRVIDGSPADRCGGLKVGDHISAVNGQSIVDLSHDNIVQLIKDAGVTVTLTVVAEEEHHGPPSGTNSARQSPALQHRPMGQAQANHIPGDRIALEGEIGRDVCSSYRHSWSDHKHLAQPDTAVISVVGSRHNQSLGCYPVELERGPRGFGFSLRGGKEYNMGLFILRLAEDGPAIKDGRIHVGDQIVEINGEPTQGITHTRAIELIQAGGNKVLLLLRPGTGLIPDHGDWDTNSPSSSNVIYDEQPPPLPSSHSASTFEESHVPATEDSLTRVQICEKAEELKDTVQEKKSTLNGSQPEMKYQSVHKTMSKKDPPRGSGHGEKSRLKGENGVTRRGRSASPKKSVNRHSEEHLEKIPRPLKSDPKEKSRDRSLSPRKGESKGRLTIKAGSGQDPYRKDRGRSSSPKKQQKIGGNSLSNTEGKLSEAGSRRAAGHPRDSTEQLPDGREKSGVSRKDLKQSQPGKTRTKSPEKKSSKVDETSLPSKKTSSTAGRVVSEKEKGKKPTAGETSRETVEHTQISAKQLKQEAQEKTALGNADDHKGRESEVTDRCRERAGCTPQSSSLVKKAPITPGPWRVPRANKVTGTTGMADKQL
notes: MAGI-3, expressed in a heterologous expression system for FLAG immunoprecipitation; HEK293 is probably the host; also called HA-MAGI-3; MAGI proteins; source: heterologous expression system, in lysate
As for B1, the binding result in experiment [1] is reported as “binds”; in experiment [2], “binds”; in experiment [3], “binds”; in experiment [4], “binds weakly”.
